Measured values: US20240190910A1, “HEMI-CITRATE SALTS OF GABA-A POSITIVE […] AND CRYSTALLINE FORM THEREOF” (priority 2021, published 2024)
Counter-ions that a name gives are not always drawn. Like-named read-outs stand apart in the source and are kept apart here.

Test: Compaction characterization by Heckel analysis (yield pressure, strain rate sensitivity, crushing strength)
Type: physicochemical
Conditions: for crushing strength at slow speed: 0.1 mm/s; for crushing strength at slow speed / crushing strength at fast speed: 10 mm compacts; for crushing strength at fast speed: 300 mm/s; for Strain rate sensitivity (SRS): fast vs slow yield pressure; for yield pressure, slow speed: punch speed 0.1 mm/s; for yield pressure, fast press speed: punch speed 300 mm/s
Protocol: The aim of the Heckel test is to compress the material under controlled conditions to derive the yield pressure of the bulk material. A known weight of material is compressed within a 10 mm diameter die with flat faced punches moving at a set speed. The force on the punch is accurately measured at frequent intervals whilst the displacement of the punches is used to calculate the volume of the powder. The yield pressure is calculated at slow and fast punch speeds to assess the time-dependent component to deformation of the material.
A known weight of pure drug is compacted to theoretical zero porosity using 10 mm diameter flat faced punches. The Compaction Simulator was used under the following conditions:
During compression the location of the punch tips are accurately determined, and the force measured by load cells producing a record of the primary compression parameters. Temperature and humidity were monitored at intervals during the test.
The data were analyzed by the Compaction Analysis software program to generate values for yield pressure (Py) using the Heckel equation:
where • D=the relative density of the compact; • P=Pressure applied; and • K=Gradient of the line in the linear region; [Reference: R. W. Heckel. Trans. Metall. Soc. AIME 221 (1961)1001-1008].
For some materials, the deformation characteristics change with rate of applied force. This can be estimated by calculating the Strain Rate Sensitivity. The yield pressure at high speed compression is compared to that at slow speed using the following equation: […]

| Structure (SMILES) | crushing strength at slow speed | crushing strength at fast speed | Strain rate sensitivity (SRS) [%] | yield pressure, slow speed [MPa] | compaction properties classification | yield pressure, fast press speed [MPa] | compaction properties classification (from slow speed yield pressure) |
| --- | --- | --- | --- | --- | --- | --- | --- |
| COC[C@@]1(O)CC[C@@]2(C)[C@@H](CC[C@@H]3[C@@H]2CC[C@]2(C)[C@@H](C(=O)Cn4ccnc4)CC[C@@H]32)C1 [Compound 1 hemi-citrate salt Form I] | 14.2-15.2 kiloponds | 4.4-5.6 kiloponds | 21.4 | 69 |  |  |  |
| COC[C@@]1(O)CC[C@@]2(C)[C@@H](CC[C@@H]3[C@@H]2CC[C@]2(C)[C@@H](C(=O)Cn4ccnc4)CC[C@@H]32)C1 [Compound 1 hemi-citrate salt] |  |  |  |  | soft ductile | 84 |  |
| COC[C@@]1(O)CC[C@@]2(C)[C@@H](CC[C@@H]3[C@@H]2CC[C@]2(C)[C@@H](C(=O)Cn4ccnc4)CC[C@@H]32)C1.O=C(O)CC(O)(CC(=O)O)C(=O)O [Compound 1 mono-citrate salt Form A] | 15.6-18 kiloponds | 5-12.4 kiloponds | 28.7 | 84 |  |  |  |
| COC[C@@]1(O)CC[C@@]2(C)[C@@H](CC[C@@H]3[C@@H]2CC[C@]2(C)[C@@H](C(=O)Cn4ccnc4)CC[C@@H]32)C1.O=C(O)CC(O)(CC(=O)O)C(=O)O [Compound 1 mono-citrate salt] |  |  |  |  |  | 109 | moderately brittle/ductile |
